Some of these results come from one statement about several compounds together. At least one compound was matched to its structure with a doubt left.
What was measured:
[1] = target: T1, rNPFF-2 (Rattus norvegicus, UniProt Q9EQD2); assay: Functional activity (EC50 and intrinsic activity relative to NPFF); type: cell-based; details: rat cloned NPFF receptors, by IA and Ki
T1 construct: expressed in transfected cells

By UniProt entry, the sequences of proteins in these tests, tags left out. Where a name states a change or a piece, a line headed by the entry shows the natural chain unless it says otherwise.
UniProt Q9EQD2: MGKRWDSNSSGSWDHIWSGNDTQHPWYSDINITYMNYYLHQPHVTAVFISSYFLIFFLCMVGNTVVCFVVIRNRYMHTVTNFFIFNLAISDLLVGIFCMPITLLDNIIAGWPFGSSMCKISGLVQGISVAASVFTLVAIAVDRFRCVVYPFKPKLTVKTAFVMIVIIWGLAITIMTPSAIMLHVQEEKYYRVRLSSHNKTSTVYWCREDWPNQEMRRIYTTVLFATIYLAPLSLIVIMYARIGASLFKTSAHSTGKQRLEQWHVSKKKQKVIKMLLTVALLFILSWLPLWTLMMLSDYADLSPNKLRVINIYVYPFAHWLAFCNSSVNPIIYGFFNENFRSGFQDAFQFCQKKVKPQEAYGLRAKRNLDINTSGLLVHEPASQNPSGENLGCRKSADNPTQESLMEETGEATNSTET
UniProt Q9EP86: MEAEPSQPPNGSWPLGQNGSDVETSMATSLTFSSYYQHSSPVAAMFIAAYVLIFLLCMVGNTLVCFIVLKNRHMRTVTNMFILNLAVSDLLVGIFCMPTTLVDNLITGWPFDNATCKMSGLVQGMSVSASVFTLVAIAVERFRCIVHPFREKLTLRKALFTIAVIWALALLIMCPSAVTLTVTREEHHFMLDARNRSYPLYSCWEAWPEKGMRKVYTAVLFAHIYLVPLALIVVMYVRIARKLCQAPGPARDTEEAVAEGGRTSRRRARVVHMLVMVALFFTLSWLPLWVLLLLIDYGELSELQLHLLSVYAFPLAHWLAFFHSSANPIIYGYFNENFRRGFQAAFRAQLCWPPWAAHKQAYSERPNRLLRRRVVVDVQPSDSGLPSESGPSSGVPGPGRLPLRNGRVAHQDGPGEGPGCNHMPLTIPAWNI

[2] = target: T2, rNPFF-1 (Rattus norvegicus, UniProt Q9EP86); assay: as above; type: cell-based; details: rat cloned NPFF receptors, by IA and Ki
T2 construct: expressed in transfected cells

[3] = target: T1, rNPFF-2; assay: Radioligand binding assay, competitive displacement of [125I]1DMeNPFF at cloned NPFF receptors; details: in words

| SMILES | classification agonist/antagonist at NPFF2 receptors [1] | classification agonist/antagonist at NPFF1 receptors [2] | affinity to NPFF2 receptors [3] |
| --- | --- | --- | --- |
| N=C(N)NCCC[C@H](NS(=O)(=O)c1ccc(Cl)c([N+](=O)[O-])c1)C(=O)N[C@@H](Cc1ccccc1)C(N)=O [Compound 1016] | agonists | agonists |  |
| N=C(N)NCCC[C@H](NS(=O)(=O)c1ccc([N+](=O)[O-])cc1)C(=O)N[C@@H](Cc1ccccc1)C(N)=O [Compound 1003] | agonists | agonists |  |
| N=C(N)NCCC[C@H](NS(=O)(=O)c1ccc(Cl)c(Cl)c1)C(=O)N[C@@H](Cc1ccccc1)C(N)=O [Compound 1022] | agonists | agonists |  |
| N=C(N)NCCC[C@H](NS(=O)(=O)c1ccc2ccccc2c1)C(=O)N[C@H](Cc1ccccc1)C(N)=O [Compound 1029] | agonists | agonists |  |
| N=C(N)NCCC[C@H](NS(=O)(=O)c1ccccc1[N+](=O)[O-])C(=O)N[C@@H](Cc1ccccc1)C(N)=O [Compound 1026] | agonists | agonists |  |
| N=C(N)NCCC[C@H](NS(=O)(=O)c1c(F)cccc1F)C(=O)N[C@@H](Cc1ccccc1)C(N)=O [Compound 1004] | agonists |  |  |
| COc1ccc(Br)cc1S(=O)(=O)N[C@@H](CCCNC(=N)N)C(=O)N[C@@H](Cc1ccccc1)C(N)=O [Compound 1025] | agonists | agonists |  |
| N=C(N)NCCC[C@H](NS(=O)(=O)Cc1ccccc1)C(=O)N[C@@H](Cc1ccccc1)C(N)=O [Compound 1011, N1-[(1S)-2-Amino-1-benzyl-2-oxoethyl]-(25)-5-[amino(imino)methyl]amino-2-[(benzylsulfonyl)amino]pentanamide] | agonists | agonists |  |
| N=C(N)NCCC[C@H](NS(=O)(=O)c1ccccc1Br)C(=O)N[C@@H](Cc1ccccc1)C(N)=O [Compound 2001] |  |  | weak or no affinity |
| N=C(N)NCCC[C@H](NS(=O)(=O)c1cccs1)C(=O)N[C@@H](Cc1ccccc1)C(N)=O [Compound 1013] | agonists | agonists |  |
| N#Cc1cccc(S(=O)(=O)N[C@@H](CCCNC(=N)N)C(=O)N[C@@H](Cc2ccccc2)C(N)=O)c1 [Compound 1023] | agonists | agonists |  |
| COc1ccc(S(=O)(=O)N[C@@H](CCCNC(=N)N)C(=O)N[C@@H](Cc2ccccc2)C(N)=O)cc1 [Compound 1009] |  | agonists |  |
| N=C(N)NCCC[C@H](NS(=O)(=O)c1ccc(F)c(Cl)c1)C(=O)N[C@@H](Cc1ccccc1)C(N)=O [Compound 1017] | agonists | agonists |  |
| N=C(N)NCCC[C@H](NS(=O)(=O)c1cc(Cl)ccc1Cl)C(=O)N[C@@H](Cc1ccccc1)C(N)=O [Compound 1021] | agonists | agonists |  |
| N=C(N)NCCC[C@H](NS(=O)(=O)c1cc(Cl)sc1Cl)C(=O)N[C@@H](Cc1ccccc1)C(N)=O [Compound 1020] | agonists | agonists |  |
| N=C(N)NCCC[C@H](NS(=O)(=O)c1ccc(Cl)cc1Cl)C(=O)N[C@@H](Cc1ccccc1)C(N)=O [Compound 1010] | agonists | agonists |  |
| N=C(N)NCCC[C@H](NS(=O)(=O)c1ccccc1)C(=O)N[C@@H](Cc1ccccc1)C(N)=O [Compound 1008] | agonists | agonists |  |
| N=C(N)NCCC[C@H](NS(=O)(=O)c1c(Cl)cccc1Cl)C(=O)N[C@@H](Cc1ccccc1)C(N)=O [Compound 1019] | agonists | agonists |  |
| N=C(N)NCCC[C@H](NS(=O)(=O)c1cccc2ccccc12)C(=O)N[C@@H](Cc1ccccc1)C(N)=O [Compound 1001, N1-[(1S)-2-Amino-1-benzyl-2-oxoethyl]-(2S)-(5-guanidino)-2-[(1-naphthylsulfonyl)amino]pentanamide] | agonists | agonists |  |
| N=C(N)NCCC[C@H](NS(=O)(=O)c1cccc([N+](=O)[O-])c1)C(=O)N[C@@H](Cc1ccccc1)C(N)=O [Compound 1002] | agonists | agonists |  |
| Cc1ccc(S(=O)(=O)N[C@@H](CCCNC(=N)N)C(=O)N[C@@H](Cc2ccccc2)C(N)=O)cc1 [Compound 1007] | agonists | agonists |  |
| N=C(N)NCCC[C@H](NS(=O)(=O)c1c(F)c(F)c(F)c(F)c1F)C(=O)N[C@@H](Cc1ccccc1)C(N)=O [Compound 1024] | agonists | agonists |  |
| N=C(N)NCCC[C@H](NS(=O)(=O)c1ccc2ccccc2c1)C(=O)N[C@@H](Cc1ccccc1)C(N)=O [Compound 1014, N1-[(1S)-2-Amino-1-benzyl-2-oxoethyl]-(2S)-(5-guanidino)-2-[(2-naphthylsulfonyl)amino]pentanamide] | agonists | agonists |  |
| N=C(N)NCCC[C@H](NS(=O)(=O)c1ccc(Cl)cc1)C(=O)N[C@@H](Cc1ccccc1)C(N)=O [Compound 1006] | agonists | agonists |  |
| N=C(N)NCCC[C@H](NS(=O)(=O)c1ccc(F)cc1)C(=O)N[C@H](Cc1ccccc1)C(N)=O [Compound 1033] | agonists |  |  |
| N=C(N)NCCC[C@H](NS(=O)(=O)c1ccc(I)cc1)C(=O)N[C@@H](Cc1ccccc1)C(N)=O [Compound 1012] | agonists | agonists |  |
| N=C(N)NCCC[C@H](NS(=O)(=O)c1ccc(C(F)(F)F)cc1[N+](=O)[O-])C(=O)N[C@@H](Cc1ccccc1)C(N)=O [Compound 1018] | agonists | agonists |  |

From US20030144310A1 (priority 2001, published 2003)
